Consider one substance from article doi:10.1101/792705.

By UniProt entry, the sequences of proteins in these tests, tags left out. Residues count along the entry.
UniProt P22366: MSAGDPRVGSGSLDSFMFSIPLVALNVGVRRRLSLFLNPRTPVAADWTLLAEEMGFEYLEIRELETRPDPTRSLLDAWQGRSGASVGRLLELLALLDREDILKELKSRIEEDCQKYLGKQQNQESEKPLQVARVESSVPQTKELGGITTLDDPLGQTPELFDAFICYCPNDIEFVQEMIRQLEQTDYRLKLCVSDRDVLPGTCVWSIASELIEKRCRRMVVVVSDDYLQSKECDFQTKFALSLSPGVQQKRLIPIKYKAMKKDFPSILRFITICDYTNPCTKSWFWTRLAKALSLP
UniProt Q9QUK6, residues 26-835: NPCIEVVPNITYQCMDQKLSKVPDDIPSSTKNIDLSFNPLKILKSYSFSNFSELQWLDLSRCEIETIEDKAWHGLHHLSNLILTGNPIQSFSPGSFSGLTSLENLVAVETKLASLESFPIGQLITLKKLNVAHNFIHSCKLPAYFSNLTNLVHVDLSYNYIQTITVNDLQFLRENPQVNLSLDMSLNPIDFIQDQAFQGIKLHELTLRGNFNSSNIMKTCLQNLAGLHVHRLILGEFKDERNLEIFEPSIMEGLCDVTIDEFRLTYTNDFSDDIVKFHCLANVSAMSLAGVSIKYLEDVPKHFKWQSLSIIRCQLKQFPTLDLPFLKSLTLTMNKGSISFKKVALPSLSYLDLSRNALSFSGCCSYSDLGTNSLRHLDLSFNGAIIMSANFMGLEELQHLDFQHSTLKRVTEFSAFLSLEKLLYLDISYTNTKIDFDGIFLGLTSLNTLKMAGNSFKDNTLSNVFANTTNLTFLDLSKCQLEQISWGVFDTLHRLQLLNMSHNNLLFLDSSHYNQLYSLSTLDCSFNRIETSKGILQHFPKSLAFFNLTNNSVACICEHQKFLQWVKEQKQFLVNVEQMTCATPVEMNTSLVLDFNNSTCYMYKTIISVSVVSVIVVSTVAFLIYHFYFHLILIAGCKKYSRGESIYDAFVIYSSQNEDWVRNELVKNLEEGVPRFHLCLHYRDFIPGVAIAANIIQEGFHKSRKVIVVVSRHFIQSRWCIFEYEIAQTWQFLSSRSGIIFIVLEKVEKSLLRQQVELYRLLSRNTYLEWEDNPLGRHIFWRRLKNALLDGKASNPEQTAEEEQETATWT

The target in the experiment is MyD88 (mouse (endogenous in BMDM)) (UniProt P22366). As to the kind of experiment: co-IP.

These are yes or no findings as the source states them, for the method shown. Binding seen in cells or lysates may run through a third protein. Some results given as binding are weak or reduced against the parent protein; the word gives no strength.

On to “TLR4 (from UniProt Q9QUK6 26-835) (receptor)”, for which the binding entry is on record as “binds”.
